These are yes or no findings as the source states them, for the method shown. Some binding calls cover weakened binding; strength is not graded here.
B1: Deinococcus radiodurans RecO (protein, UniProt Q9RW50 1-244)
chain: MRSRTANRSGIVIRRRVTPAGDIIVTLLTPQGKLKAIARGGVKGPLSSSLNLFHHVGVQVYQGPHNDLASVKQAVLEGALPTLAEPERYAFAHLMAEFADALFQEGEFSEQAFDLFAASLRGVAHQPDPEWVALVMSYKLLGLAGVIPQTARCARCGAPDPEHPDPLGGQLLCSKCAALPPYPPAVLDFLRHAVRRTVRASFEQPVPSADRPALWRALEKFVTVQVGGVHSWRQLVPSGVPVLS
B2: Deinococcus radiodurans RecA, full length (protein, UniProt P42443 1-363)
chain: MSKDATKEISAPTDAKERSKAIETAMSQIEKAFGKGSIMKLGAESKLDVQVVSTGSLSLDLALGVGGIPRGRITEIYGPESGGKTTLALAIVAQAQKAGGTCAFIDAEHALDPVYARALGVNTDELLVSQPDNGEQALEIMELLVRSGAIDVVVVDSVAALTPRAEIEGDMGDSLPGLQARLMSQALRKLTAILSKTGTAAIFINQVREKIGVMYGNPETTTGGRALKFYASVRLDVRKIGQPTKVGNDAVANTVKIKTVKNKVAAPFKEVELALVYGKGFDQLSDLVGLAADMDIIKKAGSFYSYGDERIGQGKEKTIAYIAERPEMEQEIRDRVMAAIRAGNAGEAPALAPAPAAPEAAEA

How the values were obtained:
[1] = target: T1, Deinococcus radiodurans DdrB (D. radiodurans) (UniProt Q9RY80); test: two-hybrid; yeast strain pJ69-4A; Gal4-AD fusions (pGAD-C1) and Gal4-BD fusions (pGBDU-C1); clones spotted as 1/5 dilutions on synthetic complete medium lacking leucine, uracil and histidine; 5 days at 28°C
T1 sequence: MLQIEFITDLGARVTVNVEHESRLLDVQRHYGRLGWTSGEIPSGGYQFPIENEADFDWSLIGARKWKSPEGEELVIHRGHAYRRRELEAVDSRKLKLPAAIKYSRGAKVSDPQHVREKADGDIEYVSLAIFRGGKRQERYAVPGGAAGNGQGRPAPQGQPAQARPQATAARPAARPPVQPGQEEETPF

[2] = target: Deinococcus radiodurans RecA, full length (D. radiodurans) (UniProt P42443); test: as above

Row | Binder | binding [1] | binding [2]
1 | B1 | no binding | 
2 | B2 |  | binds
